Test results from publication PMC12058022, “Promiscuous structural cross-compatibilities between major shell components of Klebsiella pneumoniae bacterial microcompartments” (PLOS One, 2025).

Columns and labels:
[1] = target: PduA, His6-tagged (Klebsiella pneumoniae (strain 342)); assay: SEC; SEC-HPLC of fractions purified on cobalt resin from strains co-expressing a FLAG-tagged and a His6-tagged BMC-H; profiles compared with those of the individual proteins; 20 mM Tris-HCl, 300 mM NaCl, pH 7; both purified
[2] = target: PduA, His6-tagged (Klebsiella pneumoniae (strain 342)); assay: pull-down; co-purification of a FLAG-tagged BMC-H with a co-expressed His6-tagged BMC-H on cobalt-chelate columns from soluble fractions of E. coli BL21(DE3), with 1 mM beta-mercaptoethanol added before loading; washes 20 mM NaPi/300 mM NaCl/10 mM imidazole pH 8.0; SDS-PAGE and anti-FLAG western blot

B1: PduJ, His6-tagged (natural protein, Klebsiella pneumoniae (strain 342), UniProt A6TDD7 1-91, looked up)
chain: MNNALGLVETKGLVGAIEAADAMVKSANVQLIGYEKIGSGLITVMVRGDVGAVKAAVDAGSAAASVVGEVKSSHVIPRPHSDVEAILPKSV
notes: PduJ, canonical BMC-H shell protein of the PDU microcompartment; theoretical monomer MW 9.2 kDa; not shown: His6, C-terminal, kept
B1 was tested, and the binding [1] was “binds” and the binding [2] was “binds”.

These are yes or no findings as the source states them, for the method shown. Binding calls can cover weak binding; strength is not graded here. Tags and fused reporters may be left off the sequences shown. For some assays here: Binding seen in cells or lysates may run through a third protein.
